Patent US20130005833A1, “PHOTO-RESPONSIVE SUPRAMOLECULAR HYDROGELS” (priority 2011, published 2013)

Assay: Response of the gel to addition of vancomycin
Conditions: one equivalent of vancomycin hydrochloride added to the surface of the gel

Substance	phase change of the gel upon addition of vancomycin
Azo-Lys-D-Phe-D-Ala	gradually changed to a homogeneous solution
Azo-Lys-Phe-Ala	no phase change
